These results are taken from article PMC7073468, “Small RNA‐binding protein RapZ mediates cell envelope precursor sensing and signaling in Escherichia coli” (The EMBO Journal, 2020).

For at least one entry, the source does not settle the construct or the ends of the probe. A weaker result is weaker than the reference pair of the same experiment. Tags and fusion partners may be left off the protein sequences shown. At least one verdict was read from the data and is not stated in words by the source.

The target in the data set is T1, Strep-RapZ-CTD (Escherichia coli) (UniProt P0A894).
T1 sequence (looked up): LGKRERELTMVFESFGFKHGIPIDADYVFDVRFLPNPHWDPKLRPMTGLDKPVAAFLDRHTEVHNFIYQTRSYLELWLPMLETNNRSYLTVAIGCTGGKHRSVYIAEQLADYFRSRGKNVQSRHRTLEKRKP
Nature of the data set: EMSA. Conditions: EMSA: 10 mM Tris-HCl, 100 mM KCl, 10 mM MgCl2, pH 6.0 (Fig 6D-F; also pH 7.0 and >=8.0), 1 ug yeast tRNA, 30 C 30 min, native 5.5% PAA gel at 4 C, recombinant protein, residues 153-284, protein details: Strep, label: radiolabeled, probe letters rebuilt from the primers and the genome. For orientation: A gel shift assay detects complexes by their altered migration in electrophoresis.

Take “GGGAGAAGUGGCUCAUUCACCGACUUAUGUCAGCCCCUUCGGGACGUGCUACAUAAAAUACGAAUGACGCACAACAAGGUGCCUGCCGUCCAACUUCUGAUAUCAGCGUAGCUAUAUCAACCAUCGGGCGAAACGUCGAGUUAGGCACCGCCUU [GlmY* (processed sRNA)]”: the binding result reads like this: (GlcN6P, pH 6.0 (responds as well as full-length, GlmY* released)) “binds more weakly”; (no metabolite, pH 6.0) “binds”.
